# Literature values, collected in patent publication US5698219A, “Nanoemulsion of the oil water type, useful as an ophthalmic vehicle and process for the preparation thereof” (Laboratorios Cusi, S.A., priority 1994, dated 1997).
# At least one compound was matched to its structure with a doubt left.
# Conditions: EP 0 521 799 A1; benzalkonium chloride at 0.02% (w/v)
compound,measurement,value
CC(C)(O)C(Cl)(Cl)Cl [chlorobutanol],preservative effectiveness when used individually,lack of effectiveness
